Laboratory results as given in US20060211606A1, “Peptides” (priority 2005, published 2006).
Some of these results come from one statement about several compounds together.

Experiment: Stability to proteolytic cleavage in fresh human plasma, Western blotting
Details: intact peptide bound to specific antibody

## stabilised peptide: SEQ ID NO: 15 with D-Arginine at positions 14 and 15, N-terminus attached to PEG (Jeffamine) via succinic acid bridge, amidated at C-terminus (YQPPSTNKNTKSQRRKGSTFEEHK; D-Arg 14,15; N-terminal PEG via succinate; C-amide)
  stability score (scale of 0 to 3): 3 (no marked loss of antibody binding by 24 hours.)
